Reference: the supplement of paper PMC10849652
The other results are listed elsewhere or left out.

Chains of the proteins cited; added tags and fusions are not shown. Lines headed by an entry give the natural chain unless they say otherwise; changes in a name come on top.
UniProt Q8NEZ2: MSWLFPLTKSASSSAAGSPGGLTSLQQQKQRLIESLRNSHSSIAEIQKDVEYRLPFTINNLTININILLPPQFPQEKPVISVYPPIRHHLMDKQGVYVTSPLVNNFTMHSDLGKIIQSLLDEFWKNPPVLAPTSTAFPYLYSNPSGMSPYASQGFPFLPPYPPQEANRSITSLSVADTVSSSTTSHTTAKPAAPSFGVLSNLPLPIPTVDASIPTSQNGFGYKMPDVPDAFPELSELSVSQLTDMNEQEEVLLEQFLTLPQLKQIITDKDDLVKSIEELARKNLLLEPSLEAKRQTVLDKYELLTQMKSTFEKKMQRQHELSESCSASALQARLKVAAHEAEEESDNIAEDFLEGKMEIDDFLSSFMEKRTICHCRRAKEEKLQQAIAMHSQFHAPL
UniProt Q9H270: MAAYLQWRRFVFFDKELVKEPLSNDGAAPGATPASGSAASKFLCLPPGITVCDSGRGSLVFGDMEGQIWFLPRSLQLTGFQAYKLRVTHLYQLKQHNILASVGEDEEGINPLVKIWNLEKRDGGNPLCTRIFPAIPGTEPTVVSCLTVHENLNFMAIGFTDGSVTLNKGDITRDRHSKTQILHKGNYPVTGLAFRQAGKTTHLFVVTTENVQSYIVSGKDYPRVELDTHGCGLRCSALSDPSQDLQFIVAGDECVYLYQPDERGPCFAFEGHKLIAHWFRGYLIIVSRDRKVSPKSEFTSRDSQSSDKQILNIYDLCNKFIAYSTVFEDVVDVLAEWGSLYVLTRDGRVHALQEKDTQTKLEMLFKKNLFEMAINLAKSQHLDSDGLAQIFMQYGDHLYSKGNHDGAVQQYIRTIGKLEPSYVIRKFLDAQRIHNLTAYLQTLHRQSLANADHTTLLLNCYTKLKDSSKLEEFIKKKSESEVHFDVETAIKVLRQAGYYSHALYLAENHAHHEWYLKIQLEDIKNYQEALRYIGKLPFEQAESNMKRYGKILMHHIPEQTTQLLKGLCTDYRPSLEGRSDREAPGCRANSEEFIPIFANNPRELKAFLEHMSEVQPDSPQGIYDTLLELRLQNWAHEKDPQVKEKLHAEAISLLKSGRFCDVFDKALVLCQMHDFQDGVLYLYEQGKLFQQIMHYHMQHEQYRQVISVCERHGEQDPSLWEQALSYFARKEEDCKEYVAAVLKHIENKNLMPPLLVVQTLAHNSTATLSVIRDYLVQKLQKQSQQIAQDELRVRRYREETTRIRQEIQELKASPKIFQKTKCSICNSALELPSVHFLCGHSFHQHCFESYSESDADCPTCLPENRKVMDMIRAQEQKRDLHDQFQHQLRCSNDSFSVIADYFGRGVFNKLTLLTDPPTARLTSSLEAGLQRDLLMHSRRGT
UniProt Q9UEU0: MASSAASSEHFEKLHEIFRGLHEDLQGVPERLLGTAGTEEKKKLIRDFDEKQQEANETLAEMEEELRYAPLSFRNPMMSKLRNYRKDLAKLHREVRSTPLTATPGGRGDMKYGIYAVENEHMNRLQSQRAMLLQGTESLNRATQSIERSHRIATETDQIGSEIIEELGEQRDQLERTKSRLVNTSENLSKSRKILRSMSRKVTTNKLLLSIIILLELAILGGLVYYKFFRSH
UniProt Q6RFH5: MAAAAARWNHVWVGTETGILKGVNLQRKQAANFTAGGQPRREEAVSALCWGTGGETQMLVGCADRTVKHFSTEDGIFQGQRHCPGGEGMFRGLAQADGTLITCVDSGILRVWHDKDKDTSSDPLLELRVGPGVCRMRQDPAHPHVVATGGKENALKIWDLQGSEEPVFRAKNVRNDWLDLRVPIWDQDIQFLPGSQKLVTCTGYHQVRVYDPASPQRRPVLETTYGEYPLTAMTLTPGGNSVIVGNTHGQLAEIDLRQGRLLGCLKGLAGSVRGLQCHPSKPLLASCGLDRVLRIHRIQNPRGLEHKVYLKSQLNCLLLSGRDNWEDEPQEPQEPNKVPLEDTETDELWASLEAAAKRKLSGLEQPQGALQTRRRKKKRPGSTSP
UniProt Q8IV63: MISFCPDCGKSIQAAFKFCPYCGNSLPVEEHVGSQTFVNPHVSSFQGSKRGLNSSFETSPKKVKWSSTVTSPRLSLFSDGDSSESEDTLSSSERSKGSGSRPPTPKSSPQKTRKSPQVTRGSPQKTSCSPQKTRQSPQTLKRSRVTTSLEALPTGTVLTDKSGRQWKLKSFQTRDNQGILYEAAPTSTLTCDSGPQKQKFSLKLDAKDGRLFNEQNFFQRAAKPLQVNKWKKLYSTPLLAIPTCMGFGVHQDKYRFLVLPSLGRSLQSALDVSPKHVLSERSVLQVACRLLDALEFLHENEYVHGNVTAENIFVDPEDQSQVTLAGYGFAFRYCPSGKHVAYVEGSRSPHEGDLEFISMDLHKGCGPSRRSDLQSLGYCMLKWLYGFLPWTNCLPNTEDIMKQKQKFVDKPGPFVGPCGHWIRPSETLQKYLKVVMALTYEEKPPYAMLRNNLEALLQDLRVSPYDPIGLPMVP
UniProt P42768: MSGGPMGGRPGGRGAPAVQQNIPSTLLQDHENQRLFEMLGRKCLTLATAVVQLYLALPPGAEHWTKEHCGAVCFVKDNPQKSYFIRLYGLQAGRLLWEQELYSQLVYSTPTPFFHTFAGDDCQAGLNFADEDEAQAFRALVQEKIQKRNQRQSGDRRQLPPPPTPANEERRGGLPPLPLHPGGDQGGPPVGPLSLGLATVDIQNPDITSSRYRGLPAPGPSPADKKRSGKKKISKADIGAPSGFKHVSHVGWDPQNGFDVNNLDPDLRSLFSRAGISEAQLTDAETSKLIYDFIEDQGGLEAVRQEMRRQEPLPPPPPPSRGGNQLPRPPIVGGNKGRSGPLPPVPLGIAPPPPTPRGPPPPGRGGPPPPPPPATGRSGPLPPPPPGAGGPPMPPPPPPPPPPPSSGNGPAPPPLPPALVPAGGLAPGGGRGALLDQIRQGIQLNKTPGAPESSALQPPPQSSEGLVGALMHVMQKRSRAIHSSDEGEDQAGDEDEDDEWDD
UniProt Q8IWA0: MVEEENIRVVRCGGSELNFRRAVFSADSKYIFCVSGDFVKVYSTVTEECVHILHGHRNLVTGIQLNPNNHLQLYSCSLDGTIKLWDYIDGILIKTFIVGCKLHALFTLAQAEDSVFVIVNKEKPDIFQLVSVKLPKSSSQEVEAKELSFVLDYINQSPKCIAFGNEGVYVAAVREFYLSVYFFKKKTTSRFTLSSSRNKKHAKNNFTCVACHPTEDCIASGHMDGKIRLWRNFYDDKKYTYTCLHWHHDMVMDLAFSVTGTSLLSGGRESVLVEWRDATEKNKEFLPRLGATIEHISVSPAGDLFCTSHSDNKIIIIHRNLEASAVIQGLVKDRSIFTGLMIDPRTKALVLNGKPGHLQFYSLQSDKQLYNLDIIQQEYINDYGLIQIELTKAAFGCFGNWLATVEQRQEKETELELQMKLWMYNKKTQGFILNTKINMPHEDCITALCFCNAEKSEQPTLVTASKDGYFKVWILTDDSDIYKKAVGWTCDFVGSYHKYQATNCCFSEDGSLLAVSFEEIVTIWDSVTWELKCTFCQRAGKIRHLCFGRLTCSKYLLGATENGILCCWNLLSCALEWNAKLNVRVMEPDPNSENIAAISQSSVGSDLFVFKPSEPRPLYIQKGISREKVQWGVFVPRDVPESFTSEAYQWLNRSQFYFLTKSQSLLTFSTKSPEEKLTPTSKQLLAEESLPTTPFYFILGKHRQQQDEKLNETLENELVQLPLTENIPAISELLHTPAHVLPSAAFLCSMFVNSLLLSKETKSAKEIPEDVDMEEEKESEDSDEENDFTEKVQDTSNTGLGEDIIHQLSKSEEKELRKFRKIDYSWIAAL
UniProt P51811: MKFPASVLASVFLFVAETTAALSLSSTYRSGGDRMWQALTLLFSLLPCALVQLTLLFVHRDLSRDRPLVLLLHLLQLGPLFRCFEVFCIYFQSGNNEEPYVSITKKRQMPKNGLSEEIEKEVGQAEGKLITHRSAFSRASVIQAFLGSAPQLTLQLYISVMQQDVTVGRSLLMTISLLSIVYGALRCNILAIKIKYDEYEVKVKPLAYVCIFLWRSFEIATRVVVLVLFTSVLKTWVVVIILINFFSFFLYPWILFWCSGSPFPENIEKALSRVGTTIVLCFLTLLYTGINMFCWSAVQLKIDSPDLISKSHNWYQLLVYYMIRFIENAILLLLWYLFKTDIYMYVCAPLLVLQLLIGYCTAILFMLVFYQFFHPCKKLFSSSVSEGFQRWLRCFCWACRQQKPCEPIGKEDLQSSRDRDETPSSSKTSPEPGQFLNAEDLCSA
UniProt Q7Z5U6: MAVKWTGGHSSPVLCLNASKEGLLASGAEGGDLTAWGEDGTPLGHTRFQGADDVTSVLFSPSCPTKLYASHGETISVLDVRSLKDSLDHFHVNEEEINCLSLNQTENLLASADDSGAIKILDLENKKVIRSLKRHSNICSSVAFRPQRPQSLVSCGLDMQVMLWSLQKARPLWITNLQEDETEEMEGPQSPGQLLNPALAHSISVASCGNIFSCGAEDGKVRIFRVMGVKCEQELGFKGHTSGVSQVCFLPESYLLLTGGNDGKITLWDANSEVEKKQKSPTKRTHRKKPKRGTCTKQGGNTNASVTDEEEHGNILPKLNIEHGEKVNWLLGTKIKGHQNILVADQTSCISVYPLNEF
UniProt Q969T9: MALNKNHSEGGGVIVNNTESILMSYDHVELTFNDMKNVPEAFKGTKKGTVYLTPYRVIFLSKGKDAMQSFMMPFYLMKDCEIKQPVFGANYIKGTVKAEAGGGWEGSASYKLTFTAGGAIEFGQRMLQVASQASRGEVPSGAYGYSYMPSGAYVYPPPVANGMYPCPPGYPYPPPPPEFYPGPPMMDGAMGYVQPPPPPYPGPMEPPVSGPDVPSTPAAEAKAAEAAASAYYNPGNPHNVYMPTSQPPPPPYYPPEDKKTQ
UniProt Q9UN37: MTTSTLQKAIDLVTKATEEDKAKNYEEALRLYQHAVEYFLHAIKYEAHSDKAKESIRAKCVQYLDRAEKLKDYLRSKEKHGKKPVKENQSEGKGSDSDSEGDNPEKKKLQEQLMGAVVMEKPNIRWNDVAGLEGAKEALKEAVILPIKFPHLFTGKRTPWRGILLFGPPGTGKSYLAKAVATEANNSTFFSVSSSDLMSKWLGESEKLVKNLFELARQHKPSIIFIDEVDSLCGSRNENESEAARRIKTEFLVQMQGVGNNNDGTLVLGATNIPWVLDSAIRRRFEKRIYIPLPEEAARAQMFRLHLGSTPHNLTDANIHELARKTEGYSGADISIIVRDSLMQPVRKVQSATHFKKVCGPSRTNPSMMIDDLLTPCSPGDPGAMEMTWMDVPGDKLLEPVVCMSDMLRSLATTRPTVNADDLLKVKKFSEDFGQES
UniProt Q502W6: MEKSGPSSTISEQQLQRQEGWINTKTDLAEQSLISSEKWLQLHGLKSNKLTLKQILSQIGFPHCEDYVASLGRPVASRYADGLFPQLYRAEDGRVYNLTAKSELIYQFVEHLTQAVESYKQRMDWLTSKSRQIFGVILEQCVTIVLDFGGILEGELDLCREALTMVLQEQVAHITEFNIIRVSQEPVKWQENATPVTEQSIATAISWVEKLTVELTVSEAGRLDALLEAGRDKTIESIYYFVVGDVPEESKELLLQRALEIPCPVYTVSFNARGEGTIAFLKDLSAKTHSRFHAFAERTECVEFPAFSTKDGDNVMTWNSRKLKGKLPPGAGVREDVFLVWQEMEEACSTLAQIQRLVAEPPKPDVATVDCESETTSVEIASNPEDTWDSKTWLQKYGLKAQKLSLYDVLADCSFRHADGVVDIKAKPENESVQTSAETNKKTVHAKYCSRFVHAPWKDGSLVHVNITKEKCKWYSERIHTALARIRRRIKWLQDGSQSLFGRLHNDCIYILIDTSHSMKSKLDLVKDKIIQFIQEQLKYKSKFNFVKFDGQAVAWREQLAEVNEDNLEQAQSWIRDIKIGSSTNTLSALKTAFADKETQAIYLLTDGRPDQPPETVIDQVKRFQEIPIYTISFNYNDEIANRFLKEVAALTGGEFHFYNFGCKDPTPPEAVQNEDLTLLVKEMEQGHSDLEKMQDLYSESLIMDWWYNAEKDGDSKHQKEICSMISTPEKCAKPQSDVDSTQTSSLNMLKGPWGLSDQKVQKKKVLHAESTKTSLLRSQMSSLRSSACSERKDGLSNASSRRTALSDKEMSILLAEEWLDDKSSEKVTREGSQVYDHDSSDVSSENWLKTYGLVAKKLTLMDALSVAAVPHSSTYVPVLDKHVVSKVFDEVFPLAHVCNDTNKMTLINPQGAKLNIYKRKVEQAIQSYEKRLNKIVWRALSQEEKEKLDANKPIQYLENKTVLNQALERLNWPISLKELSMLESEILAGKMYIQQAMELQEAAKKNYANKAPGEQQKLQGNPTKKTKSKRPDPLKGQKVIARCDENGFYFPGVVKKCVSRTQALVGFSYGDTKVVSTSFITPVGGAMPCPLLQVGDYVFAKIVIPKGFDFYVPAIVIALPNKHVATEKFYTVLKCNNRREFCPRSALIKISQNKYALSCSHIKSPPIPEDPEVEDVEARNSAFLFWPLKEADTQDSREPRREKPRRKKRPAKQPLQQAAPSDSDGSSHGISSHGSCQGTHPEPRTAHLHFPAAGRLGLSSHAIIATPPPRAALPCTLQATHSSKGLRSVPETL

What follows are targets tested with C1=CC=C(C=C1)[C@H](COC2=CC3=C(C=C2)NC(=O)N3)NC(=O)C4=CC=CN(C4=O)CC5=CC(=C(C=C5)F)F (assay: log2 fold change, soluble protein after heating vs DMSO (PISA); higher = thermal stabilisation; K562 lysate, 10 uM; active = over 0.2 and 3.5 SD of the protein, either way, in both replicates (recomputed)).
Summary of the method: (§1)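 K562 pellets were dounce-homogenised in PBS pH 7.4 containing 1 mM MgCl2, and the crude extract, at 1 mg/mL protein, was exposed to 10 μM compound for 30 min. Aliquots were heated for 3 min across 48°C-58°C, pooled, brought to 0.5% NP-40 at 4°C and spun at 21,000xg for 90 min, with the supernatant taken as soluble protein. TMTpro 16plex LC-MS/MS with equalised channel sums quantified that protein. Values are log-two fold changes in thermal stability relative to solvent controls, taken from duplicates.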

Target	log2 fold change
WWP2 (UniProt O00308)	inactive: 0.009
VPS33A (UniProt Q96AX1)	inactive: 0
VPS37A (UniProt Q8NEZ2)	inactive: -0.066
VPS11 (UniProt Q9H270)	inactive: -0.018
VTI1B (UniProt Q9UEU0)	inactive: 0.022
WIPI1 (UniProt Q5MNZ9)	inactive: 0.094
VPS51 (UniProt Q9UID3)	inactive: -0.021
WDR74 (UniProt Q6RFH5)	inactive: 0.026
VRK3 (UniProt Q8IV63)	inactive: 0.05
WASF2 (UniProt Q9Y6W5)	inactive: -0.002
WAS (UniProt P42768)	inactive: 0.003
VPS35, A0A1W2PP10	inactive: 0.347
WDR75 (UniProt Q8IWA0)	inactive: 0.029
XK (UniProt P51811)	inactive: 0.041
WDR33 (UniProt Q9C0J8)	inactive: -0.09
VPS4B (UniProt O75351)	inactive: 0.019
WDR53 (UniProt Q7Z5U6)	inactive: 0.037
VWDE (UniProt Q8N2E2)	inactive: 0.08
WDR46, A0A0G2JJL1	inactive: 0.028
WDR43 (UniProt Q15061)	inactive: 0.063
WASHC5 (UniProt Q12768)	inactive: -0.01
WBP2 (UniProt Q969T9)	inactive: 0.025
WDR19 (UniProt Q8NEZ3)	inactive: -0.023
VKORC1L1, A0A3B3ISV4	inactive: -0.066
VPS4A (UniProt Q9UN37)	inactive: -0.056
WDR59 (UniProt Q6PJI9)	inactive: 0.002
WIPI2 isoform 6 (UniProt Q9Y4P8)	inactive: 0.092
VWA3B isoform 6 (UniProt Q502W6)	inactive: -0.081

Each target was assayed with CC1=C(SC2=C1C(=N[C@H](C3=NN=C(N32)C)CC(=O)N)C4=CC=C(C=C4)Cl)C in the same assay as above.
Summary of the method: as §1

Target	log2 fold change
WWP2 (UniProt O00308)	inactive: -0.111
VPS33A (UniProt Q96AX1)	inactive: 0.017
VPS37A (UniProt Q8NEZ2)	inactive: 0.072
VPS11 (UniProt Q9H270)	inactive: -0.001
VTI1B (UniProt Q9UEU0)	inactive: 0.089
WIPI1 (UniProt Q5MNZ9)	inactive: 0.023
VPS51 (UniProt Q9UID3)	inactive: 0.034
WDR74 (UniProt Q6RFH5)	inactive: -0.009
VRK3 (UniProt Q8IV63)	inactive: 0.057
WASF2 (UniProt Q9Y6W5)	inactive: 0
WAS (UniProt P42768)	inactive: -0.006
VPS35, A0A1W2PP10	inactive: -0.17
WDR75 (UniProt Q8IWA0)	inactive: 0.171
XK (UniProt P51811)	inactive: -0.041
WDR33 (UniProt Q9C0J8)	inactive: 0.032
VPS4B (UniProt O75351)	inactive: -0.039
WDR53 (UniProt Q7Z5U6)	inactive: -0.032
VWDE (UniProt Q8N2E2)	inactive: -0.028
WDR46, A0A0G2JJL1	inactive: 0.052
WDR43 (UniProt Q15061)	inactive: -0.006
WASHC5 (UniProt Q12768)	inactive: 0.006
WBP2 (UniProt Q969T9)	inactive: 0.009
WDR19 (UniProt Q8NEZ3)	inactive: -0.03
VKORC1L1, A0A3B3ISV4	inactive: -0.053
VPS4A (UniProt Q9UN37)	inactive: 0.034
WDR59 (UniProt Q6PJI9)	inactive: -0.008
WIPI2 isoform 6 (UniProt Q9Y4P8)	inactive: 0.088
VWA3B isoform 6 (UniProt Q502W6)	inactive: -0.109
